System: Hs68
Assay: CellTiter Glo viability assay
Type: cell-based
Settings: benign human fibroblast cell line Hs68
Experimental: An exception to this is MCF7PDRCl5-1 cells which were first cultured for 5 days without palbociclib then plated as described. MCF7PDRCl5-1 cells were treated with either a dose curve of the indicated CDK4/6i or a dose curve of INX-315 + 1 µmol/L of the indicated CDK4/6i. Cell viability was determined using the CellTiter-Glo assay (Promega, G9241) following manufacturer's instructions. Plates were processed on either BioTek Synergy2 multi-mode (Agilent) or ClarioSTAR (BMG Labtech) plate readers. T47D and MCF7 cells were seeded into […] plates using BioTek 406 (Aglient) and treated with a ten-point dose concentration from 10 µmol/L to 0.3 nmol/L of INX-315 for 2× doubling times. Plates were fixed with 4% PFA and stained with Rhodamine-Phalloidin (Bio-Trend, 00027) and DAPI (5 mg/mL, Invitrogen, catalog no. D1306). Plates were imaged using CellInsight CX7 LZR and DAPI-positive cells were counted using Thermo Fisher Scientific HCS Studio Cell Analysis Software.

## CCc1cnn2c(NCc3ccc[n+]([O-])c3)cc(N3CCCC[C@H]3CCO)nc12 [dinaciclib]
  IC50: 7 nM

Source: article PMC10905675, “INX-315, a Selective CDK2 Inhibitor, Induces Cell Cycle Arrest and Senescence in Solid Tumors” (Cancer Discovery, 2023)
